The record followed here is the supplement of paper PMC10398353.

Structures are written as SMILES. Where a name gives a salt, the structure may show the parent alone. This is one part of the list. This is a noisy data set.

The assay has as its system Salmonella enterica serovar Typhimurium ST313 D23580. The assay can be described thus: normalized bacterial growth (OD600 20 h minus 0 h, interquartile-mean normalized) (fraction of plate interquartile mean); higher = more bacterial growth (less inhibition). The note with it: LPM (pH 5.8, low phosphate, low Mg2+), concentration: 10 µM, temperature: 37 °C.
On to `Cc1ncc([N+](=O)[O-])n1CC(O)CCl` (stereo unspecified), for which the normalized bacterial growth is 1.21.
The value for `N#CC(=C(/N)Sc1ccccc1N)/C(C#N)=C(/N)Sc1ccccc1N` was 1.24.
The value for `NS(=O)(=O)c1cccc2c1c([N+](=O)[O-])cc1nc(O)c(O)nc12` [NBQX disodium] was 1.11.
Next, `CC(C)CCCC(C)C1CCC2C3CCC4CCCCC4(C)C3CCC12C` (stereo unspecified): 0.899.
In turn, `NC(N)=NCc1cccc(I)c1` [m-Iodobenzylguanidine hemisulfate] showed a normalized bacterial growth of 1.07.
Next, `COc1cc2c(cc1OC)C(=O)C(CC1CCN(Cc3ccccc3)CC1)C2` (stereo unspecified): 1.25; `CCCCC(CC)CN1CN(CC(CC)CCCC)CC(C)(N)C1` (stereo unspecified) [Hexetidine]: 0.64.
Next, `O=C(CCCN1CCC(O)(c2ccc(Br)cc2)CC1)c1ccc(F)cc1`: 0.988; `CNCC[C@H](Oc1cccc2ccccc12)c1cccs1`: 1.04; `CC1CCC(C(C)C)C(O)C1` (stereo unspecified): 1.27.
The value for `CO[C@@]1(NC(=O)Cc2cccs2)C(=O)N2C(C(=O)O)=C(COC(N)=O)CS[C@@H]21` was 1.4; that for `COc1cc(Cc2cnc(N)nc2N)cc(OC)c1OC` [Trimethoprim] was 1.21.
`NC(=O)C(=O)O` [Sodium Oxamate] had a normalized bacterial growth of 1.13.
The value for `COc1cc(O)c(C(=O)/C=C/c2ccccc2)c(O)c1` was 1.24; that for `FC(F)(F)c1cc(COC2CCCNC2c2ccccc2)cc(C(F)(F)F)c1` ["L-733,060 hydrochloride"] was 0.868; that for `C=CCc1ccc(OC(=O)c2ccccc2)c(OC)c1` was 0.434.
Next, `COCC1=C(C(=O)OC(C)OC(=O)OC(C)C)N2C(=O)[C@@H](NC(=O)/C(=N\OC)c3csc(N)n3)[C@H]2SC1` (stereo partly specified): 0.988; `CN(C)c1cc2c(Nc3ccc4c(cnn4Cc4ccccc4)c3)ncnc2cn1`: 0.668.
Next, `CCN(CC)CCOC(=O)C(c1ccccc1)C1CCCCC1` (stereo unspecified): 0.774.
For `Nc1ccc(-c2ccc3ccccc3n2)cc1` [BF-170 hydrochloride], the normalized bacterial growth was determined as 0.973.
`CC[C@H]1OC(=O)[C@H](C)[C@@H](O[C@H]2C[C@@](C)(OC)[C@@H](O)[C@H](C)O2)[C@H](C)[C@@H](O[C@@H]2O[C@H](C)C[C@H](N(C)C)[C@H]2O)[C@](C)(OC)C[C@@H](C)C(=O)[C@H](C)[C@@H](O)[C@]1(C)O` yielded a normalized bacterial growth of 0.77.
The molecule `C[C@H]1COC2=C1C(=O)C(=O)c1c2ccc2c1CCCC2(C)C` came in with a normalized bacterial growth of 1.21.
Next, `CC(=O)SCC[N+](C)(C)C` [Acetylthiocholine chloride]: 0.979; `O=C(Nc1nc2ccccc2n1CCN1CCOCC1)c1cccc([N+](=O)[O-])c1` [IRAK-1/4 Inhibitor I]: 1.05; `CCCCC1=NC2(CCCC2)C(=O)N1Cc1ccc(-c2ccccc2-c2nnn[nH]2)cc1`: 0.805.
The value for `CC(C)COC(=O)OCN1C(=O)CN(CCN2CC(=O)N(COC(=O)OCC(C)C)C(=O)C2)CC1=O` [Sobuzoxane] was 0.916; that for `CCCCC[C@H](O)/C=C/[C@H]1C=CC(=O)[C@@H]1CCCCCCC(=O)O` was 0.84.
The value for `CCCCOC(=O)c1ccc(N)cc1` was 0.893.
As to `O=C(Nc1ccc(C(=O)O)c(O)c1)c1ccccc1`, the normalized bacterial growth amounted to 1.12.
Take `O=[N+]([O-])c1cccc2c(Br)[nH]nc12` [3-Bromo-7-nitroindazole]: the normalized bacterial growth is 1.
Next, `NC1(C(=O)O)CCC1`: 1.22; `N=C(N)NC(=O)c1nc(Cl)c(N)nc1N` [Amiloride hydrochloride]: 1.1; `N=C(N)NC(=O)c1nc(Cl)c(N)nc1N` [Amiloride hydrochloride dihydrate]: 0.981.
The value for `O=C(O)CCC(=O)N1CCC[C@H]1C(=O)O` [N-Succinyl-L-proline] was 0.495.
`CC(=O)O[C@H]1CC[C@]2(C)C(C[C@@H](OC(C)=O)[C@]3(C)C4=CC(=O)O[C@H](c5ccoc5)[C@@]4(C)CCC23)C1(C)C` (stereo partly drawn) [3-DEOXO-3beta-ACETOXYDEOXYDIHYDROGEDUNIN] had a normalized bacterial growth of 0.875.
Next, `COc1cccc(OC)c1OCCNCC1COc2ccccc2O1` (stereo unspecified) [WB-4101 hydrochloride]: 1; `O=C1NCN(c2ccccc2)C12CCN(CCCC(c1ccc(F)cc1)c1ccc(F)cc1)CC2` [Fluspirilene]: 0.76.
Next, `CCOc1ccc(C(=O)c2ccc(OC)c(O)c2O)cc1`: 1.09; `Cc1cc(C2CCCCC2)n(O)c(=O)c1`: 0.225.
In turn, `C=C1CC/C=C(/C)CC[C@@H]2[C@@H]1CC2(C)C` registered a normalized bacterial growth of 0.959.
Take `O=C(O)c1cc2cc(Cl)ccc2[nH]1`: the normalized bacterial growth amounted to 1.26.
The value for `O=C(O)c1cc(=O)c2ccccc2o1` was 0.966; that for `CC(=O)CC(=O)CCC(=O)O` was 0.941; that for `COc1ccc2oc(-c3ccccc3)c(OC)c(=O)c2c1` was 1.05.
The value for `COc1ccc2ccc(=O)oc2c1` was 1.17.
The value for `NC(=S)c1ccc[n+]([C@@H]2O[C@@H](COP(=O)([O-])OP(=O)(O)OC[C@H]3O[C@@H](n4cnc5c(N)ncnc54)C(OP(=O)(O)O)[C@H]3O)C(O)C2O)c1` (stereo partly specified) [Thio-NADP sodium] was 0.789; that for `NS(=O)(=O)c1cc(C(=O)O)c(NCc2ccco2)cc1Cl` was 1.2; that for `NS(=O)(=O)c1cc(C(=O)O)c(NCc2ccco2)cc1Cl` [Furosemide] was 1.23.
`CC(=O)Oc1cc(C)c2c(c1C(OC(C)=O)OC(C)=O)Oc1c(c(C)c(OC(C)=O)c3c1C(OC(C)=O)OC3=O)OC2=O` (stereo unspecified) registered a normalized bacterial growth of 0.988.
Next, `CCC(CCC(C)C1CCC2C3CCC4CC(O)CCC4(C)C3CCC12C)C(C)C` (stereo unspecified): 1.12.
`NC(=O)c1ncn([C@@H]2O[C@H](CO)[C@@H](O)[C@H]2O)n1` [Ribavirin] yielded a normalized bacterial growth of 1.28.
In the case of `CCOc1ccc2c(c1)C(C)=CC(C)(C)N2` [Ethoxyquin], the normalized bacterial growth turned out to be 0.906.
The value for `CCOC(=O)[C@H](CCc1ccccc1)N[C@@H](C)C(=O)N1[C@H](C(=O)O)C[C@@H]2CCC[C@@H]21` was 1.05; that for `CC1=CC2C(C(C)C)CCC(C)(O)C2CC1` (stereo unspecified) was 1.32; that for `Cn1c(=O)c2[nH]c(C3CCCC3)nc2n(C)c1=O` ["8-Cyclopentyl-1,3-dimethylxanthine"] was 1.16.
The value for `C=NC(C(=O)NC1C(=O)N2C1SC(C)(C)C2C(=O)O)c1ccccc1` (stereo unspecified) was 0.88; that for `CC(C)COCC(CN(Cc1ccccc1)c1ccccc1)N1CCCC1` (stereo unspecified) [Bepridil hydrochloride] was 0.568.
Next, `NS(=O)(=O)c1cc2c(cc1Cl)N=CNS2(=O)=O` [Chlorothiazide]: 1.05.
As for `CNS(=O)(=O)Cc1ccc2[nH]cc(CCN(C)C)c2c1`, the normalized bacterial growth worked out at 0.407.
Next, `O=c1c(O)c(-c2ccc(O)c(O)c2)oc2cc(O)ccc12`: 0.824; `C[C@H](N)C(=O)NC(Cc1ccccc1)C(=O)O` (mixture of isomers): 1.01.
Next, `CN[C@H](CC(C)C)C(=O)N[C@H]1C(=O)N[C@@H](CC(N)=O)C(=O)N[C@H]2C(=O)N[C@H]3C(=O)N[C@H](C(=O)N[C@H](C(=O)O)c4cc(O)cc(O)c4-c4cc3ccc4O)[C@H](O)c3ccc(c(Cl)c3)Oc3cc2cc(c3O[C@@H]2O[C@H](CO)[C@@H](O)[C@H](O)[C@H]2O[C@H]2C[C@](C)(N)[C@H](O)[C@H](C)O2)Oc2ccc(cc2Cl)[C@H]1O` [Vancomycin hydrochloride from Streptomyces orientalis]: 1.13; `CN[C@H](CC(C)C)C(=O)N[C@H]1C(=O)N[C@@H](CC(N)=O)C(=O)N[C@H]2C(=O)N[C@H]3C(=O)N[C@H](C(=O)N[C@H](C(=O)O)c4cc(O)cc(O)c4-c4cc3ccc4O)[C@H](O)c3ccc(c(Cl)c3)Oc3cc2cc(c3O[C@@H]2O[C@H](CO)[C@@H](O)[C@H](O)[C@H]2O[C@H]2C[C@](C)(N)[C@H](O)[C@H](C)O2)Oc2ccc(cc2Cl)[C@H]1O`: 1.11; `CN[C@H](CC(C)C)C(=O)N[C@H]1C(=O)N[C@@H](CC(N)=O)C(=O)N[C@H]2C(=O)N[C@H]3C(=O)N[C@H](C(=O)N[C@H](C(=O)O)c4cc(O)cc(O)c4-c4cc3ccc4O)[C@H](O)c3ccc(c(Cl)c3)Oc3cc2cc(c3O[C@@H]2O[C@H](CO)[C@@H](O)[C@H](O)[C@H]2O[C@H]2C[C@](C)(N)[C@H](O)[C@H](C)O2)Oc2ccc(cc2Cl)[C@H]1O` [Vancomycin hydrochloride]: 1.42.
Next, `COc1cccc(C(=O)NCCN2CCN(c3ccc(Cl)cc3)CC2)c1`: 0.804.
Turning to `C=C(C)[C@@H]1CC=C(CO)CC1`, the normalized bacterial growth stood at 1.06.
Next, `COC1=C(OC)C(=O)C(C/C=C(\C)CC/C=C(\C)CC/C=C(\C)CC/C=C(/C)CC/C=C(\C)CC/C=C(\C)CC/C=C(\C)CC/C=C(\C)CC/C=C(\C)CCC=C(C)C)=C(C)C1=O`: 1.02; `c1ccc(CNc2ncnc3nc[nH]c23)cc1` ["Aminopurine, 6-benzyl"]: 0.947; `CN1Cc2c(N)cccc2C(c2ccccc2)C1` (stereo unspecified) [Nomifensine maleate]: 1.04.
As to `CCN[C@@H]1C[C@H](N)[C@@H](O[C@H]2OC(CN)=CC[C@H]2N)[C@H](O)[C@H]1O[C@H]1OC[C@](C)(O)[C@H](NC)[C@H]1O`, the normalized bacterial growth was determined as 1.12.
With `O=C1NC(=O)C(c2ccccc2)(c2ccccc2)N1` ["5,5-Diphenylhydantoin"], the normalized bacterial growth was determined as 1.3.
The value for `CC(C)(C)NCC(O)COc1cccc2[nH]c(=O)[nH]c12` (stereo unspecified) was 1.18; that for `COc1c(N2CCNC(C)C2)c(F)cc2c(=O)c(C(=O)O)cn(C3CC3)c12` (stereo unspecified) was 0.139.
Consider `N[C@@H](C(=O)O)[C@@H](O)[C@H](O)[C@H](O)CO`, for which the normalized bacterial growth was found to be 0.858.
The value for `O=C(c1ccccc1)c1ccc2n1CCC2C(=O)O` (stereo unspecified) [Ketorolac tris salt] was 1.09; that for `CCOC(=O)[C@@](C)(N)Cc1ccc(O)c(O)c1` was 0.857; that for `OCc1ccccc1O` was 0.988.
With `CNC(=O)[C@H]1O[C@@H](n2cnc3c(NCc4cccc(I)c4)nc(Cl)nc32)[C@H](O)[C@@H]1O` [Chloro-IB-MECA], the normalized bacterial growth was 1.21.
Next, `CC1(C)CC2C1CCC1(C)OC2(C)CCC1O` (stereo unspecified): 1.03; `COc1cc(-c2cc(=O)c3c(O)cc(O)cc3o2)ccc1O`: 1.09.
Next, `Cn1ccc2cc3c(cc21)CCN3C(=O)Nc1cccnc1`: 0.684.
